{"source": "the supplement of paper PMC8728848", "binders": {"B1": {"name": "PX9916F-bfa-443-24-443 (Bacteroides fragilis) (protein)", "chain": "DIRPVGSVIPQTAEEYRALLARAYLNVPNDRGLACLRSDEMLVNDNEYDRNSYGDIERWNDVSPFPGTSQFTWSNFYNVLFIANQVIESQKEITEGTPEVVNQLVGEAHLLRAYLHFVLVNLHGQPYTKSGALNSKSIPLKLDTDLEKTLGRNTVEEVYTSILSDIEHARELINKEKWETVFSYRFNVLSVDALQSRVSLYMGAWPKCLESAEAVLAKKSVLVDMNETPLALPNHFESVESITALEQVMGSSVNNAVWVPATFLALYQEGDKRLAAYFAAPDENGNRKSSKGGKREFSCTFRVGELYLNAAEAAANMDKLPHARMRLLELMRKRYTPEAYDKKENAVNVMDKNALISEILNERARELAFEGHRWFDLRRTTRPRMVKVLQGKTYILEQDDPRYTIPIPRDAIAANPGLAN"}}, "assay_in_all_cases": "glycan array binding signal (z-score within array); higher = stronger binding", "details_in_all_cases": "glycan notation: IUPAC condensed, linker removed", "key": {"[1]": {"target": "Neu5Ac(a2-6)Gal(b1-4)GlcNAc(b1-3)Gal(b1-4)GlcNAc(b1-3)GalNAc", "outline": "(§1)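 Negative Z-scores can be read as non-binding. The Z-score is calculated within each array and then averaged across arrays of one protein sequence at different concentrations or buffers and across linkers. Arrays, 3228 in all, were curated from the Consortium for Functional Glycomics database and kept only where the protein sequence was available.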"}, "[2]": {"target": "Neu5Ac(a2-6)Gal(b1-4)GlcNAc(b1-3)Gal(b1-4)GlcNAc(b1-3)[Neu5Ac(a2-6)Gal(b1-4)GlcNAc(b1-3)Gal(b1-4)GlcNAc(b1-6)]GalNAc", "outline": "as §1"}, "[3]": {"target": "Neu5Ac(a2-6)Gal(b1-4)GlcNAc(b1-3)Gal(b1-4)GlcNAc(b1-6)[Gal(b1-3)]GalNAc", "outline": "as §1"}, "[4]": {"target": "Neu5Ac(a2-6)Gal(b1-4)GlcNAc(b1-3)Gal(b1-4)[Fuc(a1-3)]GlcNAc(b1-3)Gal(b1-4)[Fuc(a1-3)]GlcNAc", "outline": "as §1"}, "[5]": {"target": "Neu5Ac(a2-6)Gal(b1-4)GlcNAc(b1-3)GalNAc", "outline": "as §1"}, "[6]": {"target": "Neu5Ac(a2-6)Gal(b1-4)GlcNAc(b1-3)[Neu5Ac(a2-6)Gal(b1-4)GlcNAc(b1-6)]GalNAc", "outline": "as §1"}, "[7]": {"target": "Neu5Ac(a2-6)Gal(b1-4)GlcNAc(b1-6)GalNAc", "outline": "as §1"}, "[8]": {"target": "Neu5Ac(a2-6)Gal(b1-4)GlcNAc(b1-6)[Gal(b1-3)GlcNAc(b1-3)]Gal(b1-4)Glc", "outline": "as §1"}, "[9]": {"target": "Neu5Ac(a2-6)Gal(b1-4)GlcNAc(b1-6)[Gal(b1-3)]GalNAc", "outline": "as §1"}, "[10]": {"target": "Neu5Ac(a2-6)Gal(b1-4)GlcNAc6S", "outline": "as §1"}, "[11]": {"target": "Neu5Ac(a2-6)GalNAc", "outline": "as §1"}, "[12]": {"target": "Neu5Ac(a2-6)GalNAc(b1-4)GlcNAc", "outline": "as §1"}, "[13]": {"target": "Neu5Ac(a2-6)GalNAc(b1-4)GlcNAc6S", "outline": "as §1"}, "[14]": {"target": "Neu5Ac(a2-6)GlcNAc(b1-4)GlcNAc", "outline": "as §1"}, "[15]": {"target": "Neu5Ac(a2-6)GlcNAc(b1-4)GlcNAc(b1-4)GlcNAc", "outline": "as §1"}, "[16]": {"target": "Neu5Ac(a2-8)Neu5Ac", "outline": "as §1"}, "[17]": {"target": "Neu5Ac(a2-8)Neu5Ac(a2-3)Gal(b1-3)GalNAc(b1-4)[Neu5Ac(a2-3)]Gal(b1-4)Glc", "outline": "as §1"}, "[18]": {"target": "Neu5Ac(a2-8)Neu5Ac(a2-3)Gal(b1-3)GalNAc(b1-4)[Neu5Ac(a2-8)Neu5Ac(a2-3)]Gal(b1-4)Glc", "outline": "as §1"}, "[19]": {"target": "Neu5Ac(a2-8)Neu5Ac(a2-3)Gal(b1-4)Glc", "outline": "as §1"}, "[20]": {"target": "Neu5Ac(a2-8)Neu5Ac(a2-3)Gal(b1-4)GlcNAc", "outline": "as §1"}, "[21]": {"target": "Neu5Ac(a2-8)Neu5Ac(a2-3)[Gal(b1-3)GalNAc(b1-4)]Gal(b1-4)Glc", "outline": "as §1"}, "[22]": {"target": "Neu5Ac(a2-8)Neu5Ac(a2-3)[GalNAc(b1-4)]Gal(b1-4)Glc", "outline": "as §1"}, "[23]": {"target": "Neu5Ac(a2-8)Neu5Ac(a2-8)Neu5Ac", "outline": "as §1"}, "[24]": {"target": "Neu5Ac(a2-8)Neu5Ac(a2-8)Neu5Ac(a2-3)Gal(b1-4)Glc", "outline": "as §1"}, "[25]": {"target": "Neu5Ac(a2-8)Neu5Ac(a2-8)Neu5Ac(a2-3)[Gal(b1-3)GalNAc(b1-4)]Gal(b1-4)Glc", "outline": "as §1"}, "[26]": {"target": "Neu5Ac(a2-8)Neu5Ac(a2-8)Neu5Ac(a2-3)[GalNAc(b1-4)]Gal(b1-4)Glc", "outline": "as §1"}, "[27]": {"target": "Neu5Ac(a2-8)Neu5Ac(a2-8)Neu5Ac(a2-8)Neu5Ac(a2-3)[GalNAc(b1-4)]Gal(b1-4)Glc", "outline": "as §1"}, "[28]": {"target": "Neu5Ac(a2-8)Neu5Gc(a2-3)Gal(b1-4)GlcNAc", "outline": "as §1"}, "[29]": {"target": "Neu5Ac(b2-6)Gal(b1-4)GlcNAc", "outline": "as §1"}, "[30]": {"target": "Neu5Ac(b2-6)GalNAc", "outline": "as §1"}, "[31]": {"target": "Neu5Ac9Ac(a2-3)Gal(b1-3)GlcNAc", "outline": "as §1"}, "[32]": {"target": "Neu5Ac9Ac(a2-3)Gal(b1-4)GlcNAc", "outline": "as §1"}, "[33]": {"target": "Neu5Ac9Ac(a2-6)Gal(b1-4)GlcNAc", "outline": "as §1"}, "[34]": {"target": "Neu5Gc(a2-3)Gal(b1-3)GlcNAc", "outline": "as §1"}, "[35]": {"target": "Neu5Gc(a2-3)Gal(b1-3)[Fuc(a1-4)]GlcNAc", "outline": "as §1"}, "[36]": {"target": "Neu5Gc(a2-3)Gal(b1-4)Glc", "outline": "as §1"}, "[37]": {"target": "Neu5Gc(a2-3)Gal(b1-4)GlcNAc", "outline": "as §1"}, "[38]": {"target": "Neu5Gc(a2-3)Gal(b1-4)GlcNAc(b1-3)Gal(b1-4)GlcNAc(b1-2)Man(a1-3)[Neu5Gc(a2-3)Gal(b1-4)GlcNAc(b1-3)Gal(b1-4)GlcNAc(b1-2)Man(a1-6)]Man(b1-4)GlcNAc(b1-4)GlcNAc", "outline": "as §1"}, "[39]": {"target": "Neu5Gc(a2-3)Gal(b1-4)[Fuc(a1-3)]GlcNAc", "outline": "as §1"}, "[40]": {"target": "Neu5Gc(a2-6)Gal(b1-4)GlcNAc", "outline": "as §1"}, "[41]": {"target": "Neu5Gc(a2-6)GalNAc", "outline": "as §1"}, "[42]": {"target": "Neu5Gc(a2-8)Neu5Ac(a2-3)Gal(b1-4)GlcNAc", "outline": "as §1"}, "[43]": {"target": "Neu5Gc(a2-8)Neu5Gc(a2-3)Gal(b1-4)GlcNAc", "outline": "as §1"}, "[44]": {"target": "Neu5Gc(a2-8)Neu5Gc(a2-3)Gal(b1-4)GlcNAc(b1-3)Gal(b1-4)GlcNAc", "outline": "as §1"}, "[45]": {"target": "Neu5Gc(a2-8)Neu5Gc(a2-6)Gal(b1-4)GlcNAc", "outline": "as §1"}, "[46]": {"target": "Neu5Gc(b2-6)Gal(b1-4)GlcNAc", "outline": "as §1"}}, "note": "The list shows a part of the results.", "data": [{"binder": "B1", "values": [{"measurement": "glycan array binding signal (z-score)", "setting": "[1]", "result": 1.49}, {"measurement": "glycan array binding signal (z-score)", "setting": "[2]", "result": -0.63}, {"measurement": "glycan array binding signal (z-score)", "setting": "[3]", "result": -0.155}, {"measurement": "glycan array binding signal (z-score)", "setting": "[4]", "result": 0.558}, {"measurement": "glycan array binding signal (z-score)", "setting": "[5]", "result": -0.607}, {"measurement": "glycan array binding signal (z-score)", "setting": "[6]", "result": -0.857}, {"measurement": "glycan array binding signal (z-score)", "setting": "[7]", "result": 0.34}, {"measurement": "glycan array binding signal (z-score)", "setting": "[8]", "result": 0.117}, {"measurement": "glycan array binding signal (z-score)", "setting": "[9]", "result": -0.419}, {"measurement": "glycan array binding signal (z-score)", "setting": "[10]", "result": -0.518}, {"measurement": "glycan array binding signal (z-score)", "setting": "[11]", "result": -1.11}, {"measurement": "glycan array binding signal (z-score)", "setting": "[12]", "result": 0.071}, {"measurement": "glycan array binding signal (z-score)", "setting": "[13]", "result": 0.29}, {"measurement": "glycan array binding signal (z-score)", "setting": "[14]", "result": -0.997}, {"measurement": "glycan array binding signal (z-score)", "setting": "[15]", "result": -0.341}, {"measurement": "glycan array binding signal (z-score)", "setting": "[16]", "result": 1.37}, {"measurement": "glycan array binding signal (z-score)", "setting": "[17]", "result": 1.05}, {"measurement": "glycan array binding signal (z-score)", "setting": "[18]", "result": 1.04}, {"measurement": "glycan array binding signal (z-score)", "setting": "[19]", "result": -0.701}, {"measurement": "glycan array binding signal (z-score)", "setting": "[20]", "result": -0.018}, {"measurement": "glycan array binding signal (z-score)", "setting": "[21]", "result": -0.864}, {"measurement": "glycan array binding signal (z-score)", "setting": "[22]", "result": -0.684}, {"measurement": "glycan array binding signal (z-score)", "setting": "[23]", "result": 0.106}, {"measurement": "glycan array binding signal (z-score)", "setting": "[24]", "result": -0.106}, {"measurement": "glycan array binding signal (z-score)", "setting": "[25]", "result": -0.222}, {"measurement": "glycan array binding signal (z-score)", "setting": "[26]", "result": -0.695}, {"measurement": "glycan array binding signal (z-score)", "setting": "[27]", "result": -0.835}, {"measurement": "glycan array binding signal (z-score)", "setting": "[28]", "result": -0.785}, {"measurement": "glycan array binding signal (z-score)", "setting": "[29]", "result": -1.15}, {"measurement": "glycan array binding signal (z-score)", "setting": "[30]", "result": -0.822}, {"measurement": "glycan array binding signal (z-score)", "setting": "[31]", "result": 0.036}, {"measurement": "glycan array binding signal (z-score)", "setting": "[32]", "result": -0.408}, {"measurement": "glycan array binding signal (z-score)", "setting": "[33]", "result": -0.27}, {"measurement": "glycan array binding signal (z-score)", "setting": "[34]", "result": 0.87}, {"measurement": "glycan array binding signal (z-score)", "setting": "[35]", "result": 0.039}, {"measurement": "glycan array binding signal (z-score)", "setting": "[36]", "result": 1.51}, {"measurement": "glycan array binding signal (z-score)", "setting": "[37]", "result": -0.662}, {"measurement": "glycan array binding signal (z-score)", "setting": "[38]", "result": -0.443}, {"measurement": "glycan array binding signal (z-score)", "setting": "[39]", "result": 0.012}, {"measurement": "glycan array binding signal (z-score)", "setting": "[40]", "result": -0.35}, {"measurement": "glycan array binding signal (z-score)", "setting": "[41]", "result": -0.081}, {"measurement": "glycan array binding signal (z-score)", "setting": "[42]", "result": -0.804}, {"measurement": "glycan array binding signal (z-score)", "setting": "[43]", "result": -0.891}, {"measurement": "glycan array binding signal (z-score)", "setting": "[44]", "result": -1.06}, {"measurement": "glycan array binding signal (z-score)", "setting": "[45]", "result": -0.576}, {"measurement": "glycan array binding signal (z-score)", "setting": "[46]", "result": -0.32}]}]}
